These results are taken from patent US20240209016A1, “FLUORESCENT NUCLEOSIDE PHOSPHATES” (STEALTH LABELS BIOTECH AB, priority 2021, published 2024).

“Also recorded” adds a separate entry of the source.

The subject of this data set is Huh-7 cells. Kind of data set: Cellular uptake and localisation by confocal fluorescence microscopy. The class given is cell-based, human. The following applies: 2.5 μM, 20 h, 37° C., live cells. The source says:
Confocal Laser Scanning Fluorescence Microscopy: Images were captured using a Nikon eclipse Ti microscope with a Nikon C2plus scanner, two parallel Gallium arsenide phosphide (GaAsP) detectors, and an Apo 60x Oil μS DIC N2 objective. To excite the fluorescent nucleoside triphosphates the 405 nm laser line was used, and the emission was collected between 407-607 nm. To optimize the signal while avoiding photobleaching of the compounds a laser power of 2% and a detector gain of 4% was applied. For live cell imaging, Huh-7 cells were seeded in a four-compartment dish (CELLview Dishes, Greiner Bio-One) with glass bottom as described above. During imaging the dish was placed in a stage top incubation chamber (OKO lab) maintaining 37° C. and 5% CO2.
Time-lapse Imaging: To image the uptake of compounds 7 and 17 over time, the time-lapse setup of the NIS software was used. […]
Results: To explore the cellular uptake of compounds 7 and 17, they were added to Huh-7 cells in CCM and the uptake was monitored as function of time using a confocal fluorescence microscope (FIG. 4). Control cells, exposed to CCM alone, were imaged using the same microscopy settings and recorded as reference to probe for cellular autofluorescence levels. […]

For the substance “((2R,3S,4R,5R)-5-(2,3,5,6-tetraazacyclopenta[de]tetracen-2(6H)-yl)-3,4-dihydroxytetrahydrofuran-2-yl)methyl hydrogen triphosphate [pATP]”, the “intracellular accumulation and localisation” value is on record as “accumulates in the cytosol, but not in the cell nucleus; also recorded: accumulates preferentially in the cytosol”.
For “((2R,3S,4R,5R)-5-(8-cyano-2,3,5,6-tetraazaaceanthrylen-2(6H)-yl)-3,4-dihydroxytetrahydrofuran-2-yl)methyl hydrogen triphosphate [2CNqATP]”, the “intracellular accumulation and localisation” value was “seemingly evenly distributed across the cytosol and cell nuclei”.
